Assay [1] addresses Myc-tagged MyD88 (full-length), wild type (UniProt Q99836). The experiment in a line: co-IP; HEK293T co-transfected with IL-18Rβ, Myc-MyD88 (wild or R196A-R288A) and FLAG-TRAM; with or without IL-18 (10 ng/mL; 30 to 120 min); lysate in Tris-HCl pH 7.5, 10 mM NaCl, 10 mM EDTA, 0.5% Triton-X100; IP with anti-Myc or anti-FLAG M2 and Protein G MicroBeads; western blot.
For assay [2], the target named is GST-MyD88-TIR R196A-R288A (148-296) (UniProt Q99836). The experiment in a line: pull-down; GST fusion proteins held on Glutathione Sepharose 4B, three hours at 4°C; four washes with 20 mM potassium phosphate (pH 6.0), 100 mM KCl, 0.1 mM EDTA, 10 mM DTT, 0.5% Triton X100; SDS-PAGE with Coomassie staining; in triplicate; both purified.
For assay [3], the target named is FLAG-tagged TRAM (full-length) (human) (UniProt Q86XR7). The experiment in a line: co-IP; HEK293T co-transfected with IL-18Rβ, Myc-MyD88 (wild or R196A-R288A) and FLAG-TRAM; with or without IL-18 (10 ng/mL; 30 to 120 min); lysate in Tris-HCl pH 7.5, 10 mM NaCl, 10 mM EDTA, 0.5% Triton-X100; IP with anti-Myc or anti-FLAG M2 and Protein G MicroBeads; western blot.

Amino acid sequences for entries named in this document (tags omitted). A change or cut given only in a name is not applied to a line headed by its entry. Chains listed by the source or under a name are the forms on record and can include a tag or linker.
UniProt Q99836: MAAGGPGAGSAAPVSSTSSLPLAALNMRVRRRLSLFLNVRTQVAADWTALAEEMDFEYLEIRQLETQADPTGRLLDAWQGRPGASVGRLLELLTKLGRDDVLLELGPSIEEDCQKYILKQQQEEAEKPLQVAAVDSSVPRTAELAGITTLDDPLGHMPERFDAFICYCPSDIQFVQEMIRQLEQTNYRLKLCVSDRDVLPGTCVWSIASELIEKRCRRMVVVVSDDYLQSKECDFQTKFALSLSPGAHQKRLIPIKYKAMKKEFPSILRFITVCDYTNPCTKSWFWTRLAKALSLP
GST-MyD88-TIR R196A-R288A (148-296) (Q99836, form named): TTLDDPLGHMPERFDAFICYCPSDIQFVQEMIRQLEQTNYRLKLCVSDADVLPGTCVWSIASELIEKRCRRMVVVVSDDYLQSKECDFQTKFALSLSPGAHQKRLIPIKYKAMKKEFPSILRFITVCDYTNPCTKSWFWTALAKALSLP
UniProt Q86XR7: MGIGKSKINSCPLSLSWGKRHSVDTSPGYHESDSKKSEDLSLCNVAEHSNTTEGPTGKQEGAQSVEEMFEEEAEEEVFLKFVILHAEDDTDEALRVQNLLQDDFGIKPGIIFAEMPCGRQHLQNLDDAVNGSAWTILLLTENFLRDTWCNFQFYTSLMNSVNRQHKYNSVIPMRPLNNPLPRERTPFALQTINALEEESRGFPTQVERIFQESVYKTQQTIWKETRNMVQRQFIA

No constants are given. Whether binding was seen depends on the method and setting. For part of these data: Binding seen in cells or lysates may run through a third protein. Some entries that bind do so weakly or less than the wild type.

On to “FLAG-tagged TRAM (full-length) (from UniProt Q86XR7 1-235)”, for which the binding entry in assay [1] is “binds”. On to “TRAM-TIR (amino acid residues 66-235) (from UniProt Q86XR7 66-235) (domain or fragment)”, for which, in assay [2], the binding result is recorded as “no binding”. With “Myc-tagged MyD88 (full-length), wild type (from UniProt Q99836 1-296)”, in assay [3], the binding result was “binds”.

Source of the values: paper PMC3369926.
